{
  "source": "patent US7960508B2",
  "about": "“Peptide having cytotoxicity inhibitory activity and method of screening these peptide having cytotoxicity inhibitory activity” (Juridical Foundation The Chemo-Sero-Therapeutic Research …, priority 2001, dated 2011)",
  "tested_on": "intracellular GPX (glutathione peroxidase) activity in Dami cells",
  "assay": "Increase in intracellular GPX (glutathione peroxidase) activity (Example 5)",
  "format": "cell-based, human",
  "details": "10 nM",
  "description": "The resulting cells were suspended in SA/0.01% BSA at 5×10^5 cells/ml. To 1 ml of this cell suspension were added samples at a fixed concentration so as to compare a concentration that was effective for increase in GPX activity in the samples.\nThe samples included a selenoprotein P fragment, a synthetic peptide, selenocystine, selenomethionine, Ebselen and sodium selenite. The effect was compared among these samples. […] See FIG. 4 in which the axis of abscissas indicates a percent GPX activity induced by various samples with the GPX activity induced by addition of 10 nM selenoprotein P fragment being 100% while culture of Dami cells.",
  "note": "At least one structure is not confirmed: it was looked up by name or label, or the drawing left a doubt.",
  "data": [
    {"molecule": "O=c1c2ccccc2[se]n1-c1ccccc1", "note": "[Ebselen]", "values": [
      {"measurement": "increase in intracellular GPX activity", "value": "increase in the activity could scarcely be observed"}
    ]}
  ]
}
